{"sequences": {"note": "By UniProt entry, the sequences of proteins in these tests, tags left out. Residues count along the entry.", "UniProt P22455, 22-802 limits assumed": "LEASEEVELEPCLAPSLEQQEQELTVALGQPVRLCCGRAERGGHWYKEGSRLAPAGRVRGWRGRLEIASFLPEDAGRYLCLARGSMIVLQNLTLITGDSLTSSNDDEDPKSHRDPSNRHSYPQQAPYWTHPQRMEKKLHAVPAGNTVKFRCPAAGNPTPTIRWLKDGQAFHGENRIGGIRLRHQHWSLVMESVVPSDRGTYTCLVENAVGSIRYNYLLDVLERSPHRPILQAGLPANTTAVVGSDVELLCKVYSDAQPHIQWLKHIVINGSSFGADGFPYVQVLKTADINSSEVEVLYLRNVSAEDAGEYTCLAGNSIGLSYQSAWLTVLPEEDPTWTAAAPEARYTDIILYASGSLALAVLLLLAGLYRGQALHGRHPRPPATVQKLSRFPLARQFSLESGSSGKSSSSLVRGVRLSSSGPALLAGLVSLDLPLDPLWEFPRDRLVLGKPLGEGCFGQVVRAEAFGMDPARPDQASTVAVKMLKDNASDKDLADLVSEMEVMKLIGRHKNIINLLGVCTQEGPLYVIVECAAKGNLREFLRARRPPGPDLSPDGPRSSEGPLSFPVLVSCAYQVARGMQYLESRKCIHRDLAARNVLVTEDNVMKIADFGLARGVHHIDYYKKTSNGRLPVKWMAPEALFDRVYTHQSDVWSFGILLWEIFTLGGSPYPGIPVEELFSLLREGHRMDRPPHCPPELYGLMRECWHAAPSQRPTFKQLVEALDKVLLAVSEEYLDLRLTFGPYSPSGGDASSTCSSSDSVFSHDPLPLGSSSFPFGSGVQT", "UniProt P51813, whole entry": "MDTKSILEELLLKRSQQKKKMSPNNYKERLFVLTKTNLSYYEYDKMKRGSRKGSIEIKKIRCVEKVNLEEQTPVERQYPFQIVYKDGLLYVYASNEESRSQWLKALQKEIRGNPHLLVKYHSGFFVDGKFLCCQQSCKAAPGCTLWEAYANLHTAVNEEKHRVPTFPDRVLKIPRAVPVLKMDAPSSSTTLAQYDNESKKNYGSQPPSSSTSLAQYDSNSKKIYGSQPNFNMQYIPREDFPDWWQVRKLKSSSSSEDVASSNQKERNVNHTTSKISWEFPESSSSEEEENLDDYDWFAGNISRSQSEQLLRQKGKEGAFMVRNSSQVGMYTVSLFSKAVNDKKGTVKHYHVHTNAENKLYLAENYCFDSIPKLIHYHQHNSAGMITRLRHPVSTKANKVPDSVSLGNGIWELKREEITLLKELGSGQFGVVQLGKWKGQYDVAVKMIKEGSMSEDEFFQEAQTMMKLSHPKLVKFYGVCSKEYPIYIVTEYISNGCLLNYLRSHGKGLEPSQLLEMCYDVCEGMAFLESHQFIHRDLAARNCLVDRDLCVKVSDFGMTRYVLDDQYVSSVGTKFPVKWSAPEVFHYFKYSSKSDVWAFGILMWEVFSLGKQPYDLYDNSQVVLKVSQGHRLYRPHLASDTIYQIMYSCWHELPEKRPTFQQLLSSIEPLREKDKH", "UniProt P52333, 781-1124 limits assumed": "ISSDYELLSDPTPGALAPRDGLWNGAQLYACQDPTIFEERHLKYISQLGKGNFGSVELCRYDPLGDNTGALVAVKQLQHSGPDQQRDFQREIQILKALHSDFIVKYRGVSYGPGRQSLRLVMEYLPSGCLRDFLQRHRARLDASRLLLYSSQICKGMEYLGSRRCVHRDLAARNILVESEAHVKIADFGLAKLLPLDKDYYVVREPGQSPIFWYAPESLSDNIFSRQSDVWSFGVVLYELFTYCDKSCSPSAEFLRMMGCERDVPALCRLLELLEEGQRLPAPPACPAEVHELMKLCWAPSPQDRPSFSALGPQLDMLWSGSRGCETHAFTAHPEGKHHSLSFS", "UniProt P00533, 25-1210 limits assumed": "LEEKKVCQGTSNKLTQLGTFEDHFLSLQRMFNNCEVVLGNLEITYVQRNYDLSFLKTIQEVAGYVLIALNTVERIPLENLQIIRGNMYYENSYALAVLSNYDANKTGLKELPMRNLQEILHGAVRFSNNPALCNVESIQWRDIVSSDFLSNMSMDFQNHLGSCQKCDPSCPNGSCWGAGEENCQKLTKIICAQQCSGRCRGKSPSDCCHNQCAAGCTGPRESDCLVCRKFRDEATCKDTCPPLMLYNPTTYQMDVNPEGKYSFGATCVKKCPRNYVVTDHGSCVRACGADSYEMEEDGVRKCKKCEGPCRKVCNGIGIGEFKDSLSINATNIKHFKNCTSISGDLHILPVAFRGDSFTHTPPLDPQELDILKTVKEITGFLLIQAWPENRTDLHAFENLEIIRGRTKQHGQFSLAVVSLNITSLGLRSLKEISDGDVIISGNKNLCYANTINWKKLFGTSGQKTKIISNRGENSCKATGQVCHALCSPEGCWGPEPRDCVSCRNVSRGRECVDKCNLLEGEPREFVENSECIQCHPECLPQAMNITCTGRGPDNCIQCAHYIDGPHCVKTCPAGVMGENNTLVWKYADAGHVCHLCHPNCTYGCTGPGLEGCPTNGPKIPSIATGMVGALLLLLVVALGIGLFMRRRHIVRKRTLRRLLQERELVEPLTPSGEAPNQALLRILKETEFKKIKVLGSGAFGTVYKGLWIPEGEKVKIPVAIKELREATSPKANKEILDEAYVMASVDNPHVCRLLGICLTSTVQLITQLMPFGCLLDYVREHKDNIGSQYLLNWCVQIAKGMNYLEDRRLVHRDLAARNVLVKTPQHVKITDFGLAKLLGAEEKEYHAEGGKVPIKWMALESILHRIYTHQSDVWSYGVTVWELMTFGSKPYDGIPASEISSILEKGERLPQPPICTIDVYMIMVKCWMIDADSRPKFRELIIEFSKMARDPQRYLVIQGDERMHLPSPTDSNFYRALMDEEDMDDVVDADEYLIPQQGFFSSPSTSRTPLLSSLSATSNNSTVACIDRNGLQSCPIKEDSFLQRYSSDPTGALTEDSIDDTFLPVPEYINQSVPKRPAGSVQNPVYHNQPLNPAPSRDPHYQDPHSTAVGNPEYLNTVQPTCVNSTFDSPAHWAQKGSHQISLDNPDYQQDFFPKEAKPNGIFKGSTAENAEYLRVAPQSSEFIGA", "UniProt Q06187, 2-659 limits assumed": "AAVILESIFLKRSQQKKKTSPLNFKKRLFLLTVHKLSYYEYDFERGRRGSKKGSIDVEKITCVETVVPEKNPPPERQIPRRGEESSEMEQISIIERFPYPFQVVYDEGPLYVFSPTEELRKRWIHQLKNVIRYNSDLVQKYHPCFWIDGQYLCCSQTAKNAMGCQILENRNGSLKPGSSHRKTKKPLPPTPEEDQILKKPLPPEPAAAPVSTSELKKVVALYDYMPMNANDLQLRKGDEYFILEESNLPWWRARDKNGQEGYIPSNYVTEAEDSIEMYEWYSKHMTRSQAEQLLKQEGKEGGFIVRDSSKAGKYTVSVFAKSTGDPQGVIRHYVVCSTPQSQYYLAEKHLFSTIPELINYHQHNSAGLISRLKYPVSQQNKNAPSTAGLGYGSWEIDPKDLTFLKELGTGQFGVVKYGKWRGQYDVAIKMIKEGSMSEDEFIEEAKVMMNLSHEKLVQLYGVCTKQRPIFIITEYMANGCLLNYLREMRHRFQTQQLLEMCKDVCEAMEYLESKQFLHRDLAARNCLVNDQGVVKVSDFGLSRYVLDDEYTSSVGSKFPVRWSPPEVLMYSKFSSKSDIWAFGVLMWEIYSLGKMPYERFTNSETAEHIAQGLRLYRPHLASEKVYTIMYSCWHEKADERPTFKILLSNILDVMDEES"}, "source": "patent US20240018153A1", "about": "“BENZENESULFONAMIDE DERIVATIVES AND USES THEREOF” (2692372 ONTARIO, INC., priority 2020, published 2024)", "assay_type_in_all_cases": "biochemical", "key": {"[1]": {"target": "FGFR4 (Homo sapiens (Human), UniProt P22455)", "assay": "HTRF KinEASE-TK kinase assay, FGFR4", "procedure": "(§1) Kinase activity was monitored using a HTRF® KinEASE-TK kit from Cisbio (62TK0PEC). […] FGFR-4 was purchased from Promega. 0.333 ng/ul FGFR4 (5.12 nM) was preincubated in the absence or presence of inhibitor at room temperature for 3 hours. Reaction with substrate was then initiated by adding biotinylated substrate and ATP. […] The reaction was terminated by adding 31.25 nM SA-XL665 and 100 fold diluted europium labelled antibody (Eu-Ab), diluted in 1× detection buffer that contained EDTA. After 60 min of incubation, the fluorescence emission was measured at 620 nm and 665 nm. The ratio of Em 665 nm to Em 620 nm was proportional to the amount of substrate phosphorylated by the kinase. […] The top 13 compounds together with known inhibitor Ibrutinib were further selected for dose response analysis where compounds were tested from final concentrations ranging from 24 μM to 25 uM."}, "[2]": {"target": "BMX (Homo sapiens (Human), UniProt P51813)", "assay": "HTRF KinEASE-TK kinase assay, BMX", "conditions": "3 h preincubation", "procedure": "as §1, with “BMX” for “FGFR-4”, “BMX (3.03” for “FGFR4 (5.12”, “The reaction” for “Reaction”, “Reaction” for “The reaction”"}, "[3]": {"target": "JAK3 (Homo sapiens (Human), UniProt P52333)", "assay": "HTRF KinEASE-TK kinase assay, JAK3", "procedure": "as §1, with “JAK-3” for “FGFR-4”, “0.0133” for “0.333”, “JAK3 (0.21” for “FGFR4 (5.12”"}, "[4]": {"target": "EGFR (Homo sapiens (Human), UniProt P00533)", "assay": "HTRF KinEASE-TK kinase assay, EGFR", "conditions": "3 h preincubation"}, "[5]": {"target": "BTK (Homo sapiens (Human), UniProt Q06187)", "assay": "HTRF KinEASE-TK kinase assay, BTK", "conditions": "3 h preincubation"}}, "note": "The match of structure and compound is tentative.", "data": [{"smiles": "COCCOc1ccc(Nc2ncc(F)c(Nc3cccc(NS(=O)(=O)c4c(F)c(F)c(F)c(F)c4OCF)c3)n2)cc1", "values": [{"measurement": "% FGFR4 Remaining activity vs DMSO (1 μM, 3 h)", "setting": "[1]; 1 μM, 3 h", "value": "C (<50%)"}, {"measurement": "% FGFR4 Remaining activity vs DMSO (10 μM, 3 h)", "setting": "[1]; 10 μM, 3 h", "value": "C (<50%)"}, {"measurement": "IC50", "setting": "[1]; read-out: FGFR4 IC50, dose response", "value": "< 1000", "unit": "nM"}, {"measurement": "BMX - 1 uM % remaining", "setting": "[2]; 1 uM compound", "value": "C (<50%)"}, {"measurement": "BMX - 10 uM % remaining", "setting": "[2]; 10 uM compound", "value": "C (<50%)"}, {"measurement": "% JAK3 Remaining activity vs DMSO (1 μM, 3 h)", "setting": "[3]; 1 μM", "value": "A (>90%)"}, {"measurement": "% JAK3 Remaining activity vs DMSO (10 μM, 3 h)", "setting": "[3]; 10 μM", "value": "C (<50%)"}, {"measurement": "% EGFR Remaining activity vs DMSO (1 μM, 3 h)", "setting": "[4]; 1 μM compound", "value": "A (>90%)"}, {"measurement": "% EGFR Remaining activity vs DMSO (10 μM, 3 h)", "setting": "[4]; 10 μM compound", "value": "A (>90%)"}, {"measurement": "% BTK Remaining activity vs DMSO (1 μM, 3 h)", "setting": "[5]; 1 μM compound", "value": "C (<50%)"}, {"measurement": "% BTK Remaining activity vs DMSO (10 μM, 3 h)", "setting": "[5]; 10 μM compound", "value": "C (<50%)"}]}]}
